Measured values taken from US20240108662A1, “ENGINEERED CELLS FUNCTIONALIZED WITH IMMUNE CHECKPOINT MOLECULES AND USES THEREOF” (The University of North Carolina at Chapel Hill, priority 2020, published 2024).

Assay: Proteomic analysis of native murine pancreata and decelled pancreatic ECM (Table 1)
Set-up: species or system mouse
Settings: for Pancreatic ECM: Mean of log2(intensities): abundance of the listed protein in decelled pancreatic ECM; for Native pancreas tissue: Mean of log2(intensities): abundance of the listed protein in native murine pancreas tissue

| Molecule | Mean of log2(intensities) (Native pancreas tissue) | Mean of log2(intensities) (Pancreatic ECM (decelled)) | Pancreatic ECM: Mean of log2(intensities) | Native pancreas tissue: Mean of log2(intensities) |
| --- | --- | --- | --- | --- |
| Q9CXK8 (protein, UniProt Q9CXK8 1-180, looked up, full-length) MRPLTEEETRVMFEKIAKYIGENLQLLVDRPDGTYCFRLHNDRVYYVSEMMLKLAANISGDKLVSLGTCFGKFTKTHKFRLHVTALDYLAPYAKYKVWVKPGAEQSFLYGNHVLKSGLGRITENTSQYQGVVVYSMADIPLGFGVAAKSTQDCRKVDPMAIVVFHQADIGEYVRHEETLT | 21.61 a.u. | 23.80 a.u. |  |  |
| Q62009 (protein, UniProt Q62009 1-838, looked up, full-length) MVPLLPLYALLLLFLCDINPANANSYYDKVLAHSRIRGRDQGPNVCALQQILGTKKKYFSSCKNWYQGAICGKKTTVLYECCPGYMRMEGMKGCPAVMPIDHVYGTLGIVGATTTQHYSDVSKLREEIEGKGSYTYFAPSNEAWENLDSDIRRGLENNVNVELLNALHSHMVNKRMLTKDLKHGMVIPSMYNNLGLFINHYPNGVVTVNCARVIHGNQIATNGVVHVIDRVLTQIGTSIQDFLEAEDDLSSFRAAAITSDLLESLGRDGHFTLFAPTNEAFEKLPRGVLERIMGDKVASEALMKYHILNTLQCSEAITGGAVFETMEGNTIEIGCEGDSISINGIKMVNKKDIVTKNGVIHLIDEVLIPDSAKQVIELAGKQQTTFTDLVAQLGLASSLKPDGEYTLLAPVNNAFSDDTLSMDQRLLKLILQNHILKVKVGLSDLYNGQILETIGGKQLRVFVYRTAICIENSCMVRGSKQGRNGAIHIFREIIQPAEKSLHDKLRQDKRFSIFLSLLEAADLKDLLTQPGDWTLFAPTNDAFKGMTSEERELLIGDKNALQNIILYHLTPGVYIGKGFEPGVTNILKTTQGSKIYLKGVNETLLVNELKSKESDIMTTNGVIHVVDKLLYPADIPVGNDQLLELLNKLIKYIQIKFVRGSTFKEIPMTVYTTKIITKVVEPKIKVIQGSLQPIIKTEGPAMTKIQIEGDPDFRLIKEGETVTEVIHGEPVIKKYTKIIDGVPVEITEKQTREERIITGPEIKYTRISTGGGETGETLQKFLQKEVSKVTKFIEGGDGHLFEDEEIKRLLQGDTPAKKIPANKRVQGPRRRSREGRSQ |  |  | 25.09 a.u. | 22.23 a.u. |
| Q9R0Q9 (protein, UniProt Q9R0Q9 1-247, looked up, full-length) MAGEADGRFKGLLVPILLPEKCYDQLFVQWDLLHVPCLKILLSKGLGLGIVAGSLLVKLPQVFKLLGAKSAEGLSLQSVMLELVALTGTVVYSITNNFPFSSWGEALFLTLQTVAICFLVMHYRGETVKGVAFLACYAMVLLALLSPLTPLAVVTLLQASNVPAVVVGKLLQAATNYRNGHTGQLSAITVFMLFGGSLARIFTSVQETGDPLMAGVFVVSSLCNGLIAAQVLFYWNAKAPHKQKKEQ | 24.74 a.u. | 26.89 a.u. |  |  |
| Q78XF5 (protein, UniProt Q78XF5 1-149, looked up, full-length) METLYRVPFLVLECPNLKLKKPPWVHMPSAMTVYALVVVSYFLITGGIIYDVIVEPPSVGSMTDEHGHQRPVAFLAYRVNGQYIMEGLASSFLFTMGGLGFIILDRSNAPNIPKLNRFLLLFIGFVCVLLSFFMARVFMRMKLPGYLMG | 27.56 a.u. | 29.68 a.u. |  |  |
| Q9D8B3 (protein, UniProt Q9D8B3 1-224, looked up, full-length) MSVFGKLFGAGGGKAGKGGPTPQEAIQRLRDTEEMLSKKQEFLEKKIEQELTAAKKHGTKNKRAALQALKRKKRYEKQLAQIDGTLSTIEFQREALENANTNTEVLKNMGYAAKAMKAAHDNMDIDKVDELMQDIADQQELAEEISTAISKPVGFGEEFDEDELMAELEELEQEELDKNLLEISGPETVPLPNVPSVALPSKPAKKKEEEDDDMKELENWAGSM | 25.64 a.u. | 27.55 a.u. |  |  |
| Q9D8W7 (protein, UniProt Q9D8W7 1-154, looked up, full-length) MASVSTHGNQEKSPHLPPLSKQSLLFCPKSKLHIHRGEIAKIIRECQEESFWKRALPFSLISMLVTQGLVHQGYLAANPRFGSLPKVALAGLLGFGLGKASYIRVCQSKFHSFEDQLRGAGFGPEHNRHCLLTCEDCKTRRGLSEKAGSQPSAS | 21.72 a.u. | 23.83 a.u. |  |  |
| P51881 (protein, UniProt P51881 1-298, looked up, full-length) MTDAAVSFAKDFLAGGVAAAISKTAVAPIERVKLLLQVQHASKQITADKQYKGIIDCVVRIPKEQGVLSFWRGNLANVIRYFPTQALNFAFKDKYKQIFLGGVDKRTQFWRYFAGNLASGGAAGATSLCFVYPLDFARTRLAADVGKAGAEREFKGLGDCLVKIYKSDGIKGLYQGFNVSVQGIIIYRAAYFGIYDTAKGMLPDPKNTHIFISWMIAQSVTAVAGLTSYPFDTVRRRMMMQSGRKGTDIMYTGTLDCWRKIARDEGSKAFFKGAWSNVLRGMGGAFVLVLYDEIKKYT |  |  | 34.48 a.u. | 32.34 a.u. |
| Q9ERV1 (protein, UniProt Q9ERV1 1-416, looked up, full-length) MSTKQVTCRYFMHGVCREGSQCLFSHDLANSKPSTICKYYQKGYCAYGARCRYDHTKPPAAAGGAVGPAPNPSPSSGLHSPHPSPDIATSVMRTHSNEPGKREKKTLVLRDRNLTGLAEDKTPPSKVNNPGGCSDPQTSPEMKPHSYLDAIRTGLDDLEASSSYSNEPQLCPYAAAGECRFGDACVYLHGDMCEICRLQVLHPFDPEQRKAHEKMCMSTFEHEMEKAFAFQASQDKVCSICMEVILEKASASERRFGILSNCSHTYCLSCIRQWRCAKQFENPIIKSCPECRVISEFVIPSVYWVEDQNKKNELIEAFKQGMGKKACKYFEQGKGTCPFGSKCLYRHAYPDGRLAEPEKPRKQLSSEGTVRFFNSVRLWDFIENRETRQVPSTDDVDVTELGDLFMHLSGVESSEP | 21.68 a.u. | 23.75 a.u. |  |  |
| Q8C3X8 (protein, UniProt Q8C3X8 1-702, looked up, full-length) MASSRVPQQLFLQGVAAVYLFAFASLYTQIPGLYGPEGILPARRTLRPQGKGLWQQLWETPTLLWEAPRLGLDTAQGLDLLTLLGTVLALGALLLNSLRHPFVYLLLWVAYRSAYQVGQVFLYFQWDSLLLETGFLAILVAPLRGPSKHKILQGRLAGALPHEDLPFWLVRWLLFRLMFASGVVKLTSRCPTWWGLTALTYHYETQCLPTPAAWFAHHLPVWLHKLSVVATFLIEIAVPPLFFAPIRRLRLTAFYAQALLQVLIIITGNYNFFNLLTLVLTTALLDDRHLSAEPGLRCHKKMPTSWPKALLTALSLLLELTVYGLLAYGTVYYFGLEVDWQQHIILSKTTFTFHQFSQWLKTVTLPTVWLGTASLAWELLVVLWRWIQVQGWSRKFSAGIQLSVLGTATVALFLISLVPYSYVEPGTHGRLWTGAHRLFGSVEHLQLANSYGLFRRMTGVGGRPEVVLEGSYDGQHWTEIEFMYKPGNVSRPPPFLTPHQPRLDWQMWFAALGPHTHSPWFTGLVLRLLQGKEPVIRLVQSHVANYPFHERPPTYLRAQRYKYWFSKPGDQSRWWHRQWVEEFFPSVSLGDPTLETLLQQFGLKDKSPPRARSPSNGLAQTLNWVRTQLSPLEPPILLWGLFGAVVAIRVVQTLLAPRPLQSSKQTREEKRKQTSKKDSRAASEQAAANSNSRDSWAPRRKK | 27.16 a.u. | 29.24 a.u. |  |  |
| Q99LG0 (protein, UniProt Q99LG0 1-825, looked up, full-length) MGKKRTKGRSAPDTVASESAEPVCRHLRKGLEQGNLKKALVNVEWNICQDCKTDNKVKDKPEEEAEDPSVWLCLKCGHQGCGRDSQEQHALKHYTTPRSEPHYLVLSLDNWSVWCYKCDEEVKYCSSNRLGQVVDYVRKQAGVRTSKPAEKNNGHIELENKKLEKESKNEQEREKSENLAKETIPMDSASQITVKGLSNLGNTCFFNAVMQNLSQTPVLRELLKEVKMSGTIVKIEPPDLALTEPLEVNLEPPGPLTLAMSQFLSEMQENKKRVVTPKELFSQVCKKATRFKGYQQQDSQELLRYLLDGMRAEEHQRVSKGILKAFGNSTEKLDEEVKNKVKDYEKKKAIPSFVDRIFGGELTSTIMCDECRTVSLVHESFLDLSLPVLDDQSGKKSINDKNVKMTMEEEDKDSEEEKDDSYMKSRSDLPSGTSKHLQKKAKKQAKKQAKNQRRQQKIQERFLHFNELCATDYTEDNEREADTALAGEVEVDTDSTHGSQEEATQIELSVNQKDLDGQESMIERTPDVQESPEDLGVKSANTESDLGIVTPAPECPRDFNGAFLEERTSGELDIINGLKNLNLNAAVDPDEINIEIPNDSHSAPKVYEVMNEDPETAFCTLANREAFSTDECSIQHCLYQFTRNEKLQDANKLLCEVCSRRQCNGPKANIKGDRRHVYTNAKKQMLVSLAPPVLTLHLKRFQQAGFNLRKVNKHIKFPEILDLAPFCTLKCKNVAEESTRVLYSLYGVVEHSGTMRSGHYTAYAKERTASCHLSNLVLHGDIPQDCEMESTKGQWFHISDTHVQAVPITKVLNSQAYLLFYERIL | 21.63 a.u. | 23.86 a.u. |  |  |
| O08547 (protein, UniProt O08547 1-215, looked up, full-length) MVLLTMIARVADGLPLAASMQEDEQSGRDLQQYQSQAKQLFRKLNEQSPTRCTLEAGAMTFHYIIEQGVCYLVLCEAAFPKKLAFAYLEDLHSEFDEQHGKKVPTVSRPYSFIEFDTFIQKTKKLYIDSRARRNLGSINTELQDVQRIMVANIEEVLQRGEALSALDSKANNLSSLSKKYRQDAKYLNMRSTYAKLAAVAVFFIMLIVYVRFWWL | 28.01 a.u. | 29.87 a.u. |  |  |
| Q91ZN5 (protein, UniProt Q91ZN5 1-431, looked up, full-length) MDARWWAVVVLATLPSLGAGGESPEAPPQSWTQLWLFRFLLNVAGYASFMVPGYLLVQYLRRKNYLETGRGLCFPLVKACVFGNEPKAPDEVLLAPRTETAESTPSWQVLKLVFCASGLQVSYLTWGILQERVMTGSYGATATSPGEHFTDSQFLVLMNRVLALVVAGLYCVLRKQPRHGAPMYRYSFASLSNVLSSWCQYEALKFVSFPTQVLAKASKVIPVMMMGKLVSRRSYEHWEYLTAGLISIGVSMFLLSSGPEPRSSPATTLSGLVLLAGYIAFDSFTSNWQDALFAYKMSSVQMMFGVNLFSCLFTVGSLLEQGALLEGARFMGRHSEFALHALLLSICSAFGQLFIFYTIGQFGAAVFTIIMTLRQAIAILLSCLLYGHTVTVVGGLGVAVVFTALLLRVYARGRKQRGKKAVPTEPPVQKV | 21.65 a.u. | 23.76 a.u. |  |  |
